Data on three molecules can be found in article PMC8112867.

By UniProt entry, the sequences of proteins in these tests, tags left out.
UniProt Q8R3S6, whole entry: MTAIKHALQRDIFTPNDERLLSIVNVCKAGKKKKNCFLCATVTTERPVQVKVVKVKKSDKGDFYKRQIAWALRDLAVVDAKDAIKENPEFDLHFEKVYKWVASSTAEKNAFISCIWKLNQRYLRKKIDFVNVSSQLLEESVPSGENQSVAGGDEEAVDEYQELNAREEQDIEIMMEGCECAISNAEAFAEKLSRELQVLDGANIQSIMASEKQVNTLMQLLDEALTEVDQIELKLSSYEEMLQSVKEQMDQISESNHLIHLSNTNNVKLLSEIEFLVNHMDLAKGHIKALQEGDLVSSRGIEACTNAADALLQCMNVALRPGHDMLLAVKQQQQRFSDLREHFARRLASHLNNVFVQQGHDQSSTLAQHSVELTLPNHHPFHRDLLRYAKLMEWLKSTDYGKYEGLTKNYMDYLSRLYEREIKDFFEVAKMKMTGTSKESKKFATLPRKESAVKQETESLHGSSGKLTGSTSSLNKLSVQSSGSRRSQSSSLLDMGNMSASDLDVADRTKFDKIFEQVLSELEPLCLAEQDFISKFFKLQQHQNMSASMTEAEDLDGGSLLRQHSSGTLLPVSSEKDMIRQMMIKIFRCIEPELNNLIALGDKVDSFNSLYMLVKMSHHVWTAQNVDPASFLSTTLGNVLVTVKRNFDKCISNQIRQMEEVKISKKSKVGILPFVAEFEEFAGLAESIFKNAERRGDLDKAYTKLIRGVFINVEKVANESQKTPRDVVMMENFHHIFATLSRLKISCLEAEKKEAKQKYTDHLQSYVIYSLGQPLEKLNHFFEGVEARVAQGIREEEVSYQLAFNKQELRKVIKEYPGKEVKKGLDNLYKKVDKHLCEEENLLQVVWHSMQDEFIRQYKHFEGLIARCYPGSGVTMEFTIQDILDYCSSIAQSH

Results are given in words; binding and its absence hold for the method and conditions named. In cells and extracts the contact can be indirect. Some entries that bind do so weakly or less than the wild type. Tags and fused reporters may be left off the sequences shown.

Holding throughout (assay): co-IP; FLAG-EXOC1, HA-STX2 and Myc-SNAP23 co-overexpressed together in HEK293T cells, 24 hr; lysis buffer 20 mM Tris-HCl, 150 mM NaCl, 1 mM EDTA, 1% triton X-100, protease inhibitors; immunoprecipitation with HA-, DDDDK- and c-Myc-tagged protein purification kits, each protein immunoprecipitated in turn; western blot
Background: In western blotting, separated proteins are transferred to a membrane and probed.

Experiment [1] has as its target T1, HA-tagged mouse STX2 (mouse) (UniProt Q00262).
T1 sequence: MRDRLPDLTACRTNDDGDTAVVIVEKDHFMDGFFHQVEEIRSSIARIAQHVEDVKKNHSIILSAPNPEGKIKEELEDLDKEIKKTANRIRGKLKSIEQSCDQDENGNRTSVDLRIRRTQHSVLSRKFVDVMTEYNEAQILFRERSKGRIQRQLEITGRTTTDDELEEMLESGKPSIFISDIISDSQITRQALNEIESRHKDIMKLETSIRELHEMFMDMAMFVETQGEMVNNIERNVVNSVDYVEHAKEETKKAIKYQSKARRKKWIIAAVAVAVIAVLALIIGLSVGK

Experiment [2] concerns the target T2, Myc-tagged mouse SNAP23 (mouse) (UniProt O09044).
T2 sequence: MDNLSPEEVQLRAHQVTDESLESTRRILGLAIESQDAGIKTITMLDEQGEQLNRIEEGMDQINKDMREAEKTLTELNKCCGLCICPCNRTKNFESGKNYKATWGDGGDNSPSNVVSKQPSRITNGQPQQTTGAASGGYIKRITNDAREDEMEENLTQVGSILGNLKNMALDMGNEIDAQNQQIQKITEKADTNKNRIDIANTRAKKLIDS

Experiment [3] has as its target FLAG-tagged mouse EXOC1 (mouse) (UniProt Q8R3S6).

For “FLAG-tagged mouse EXOC1 (from UniProt Q8R3S6 1-894)”, the binding result in experiment [1] and in experiment [2] was “binds” each time.

B1: Myc-tagged mouse SNAP23 (protein, UniProt O09044 1-210)
chain: MDNLSPEEVQLRAHQVTDESLESTRRILGLAIESQDAGIKTITMLDEQGEQLNRIEEGMDQINKDMREAEKTLTELNKCCGLCICPCNRTKNFESGKNYKATWGDGGDNSPSNVVSKQPSRITNGQPQQTTGAASGGYIKRITNDAREDEMEENLTQVGSILGNLKNMALDMGNEIDAQNQQIQKITEKADTNKNRIDIANTRAKKLIDS
On to B1, for which the binding entry in experiment [3] and in experiment [1] was “binds” throughout.

B2: HA-tagged mouse STX2 (protein, UniProt Q00262 1-289)
chain: MRDRLPDLTACRTNDDGDTAVVIVEKDHFMDGFFHQVEEIRSSIARIAQHVEDVKKNHSIILSAPNPEGKIKEELEDLDKEIKKTANRIRGKLKSIEQSCDQDENGNRTSVDLRIRRTQHSVLSRKFVDVMTEYNEAQILFRERSKGRIQRQLEITGRTTTDDELEEMLESGKPSIFISDIISDSQITRQALNEIESRHKDIMKLETSIRELHEMFMDMAMFVETQGEMVNNIERNVVNSVDYVEHAKEETKKAIKYQSKARRKKWIIAAVAVAVIAVLALIIGLSVGK
Regarding B2, the binding result in experiment [3] and in experiment [2] was “binds” throughout.
